Patent US20220268780A1, “METHODS OF PREDICTING ENDOMETRIAL RECEPTIVITY” (HUDSON INSTITUTE OF MEDICAL RESEARCH, priority 2019, published 2022)
Some of these results come from one statement about several compounds together.

Tested on: PCX mRNA in Ishikawa cells
Test: Transfection of miRNA mimics into Ishikawa cells, PCX mRNA by real-time RT-PCR
Assay type: cell-based, human
Conditions: mimic 5 μm, plateaued by 48-72 h
Procedure: To confirm that these two miRNAs can directly down-regulate PCX, mimics of these miRNAs were transfected into a human endometrial epithelial Ishikawa cell line and the impact on the level of PCX expression examined.
Ishikawa cells were cultured overnight in a 12-well plate (3.0×10^5 per well) in complete medium containing MEM (Thermo Fisher Scientific) supplemented with 10% FCS, 1% L-glutamine (Sigma) and 1% antibiotic-antimycotic. The following day, cells were replenished with Opti-MEM for transfection. Control and miRNA mimics (5 μm, all from Thermo Fisher Scientific) were transfected into Ishikawa cells using Lipofectamine RNAiMAX Transfection Reagent (Thermo Fisher Scientific) for 24, 48, 72 h respectively, and PCX mRNA levels were examined by real-time RT-PCR. Combination of the two miRNAs (5 μm each) was also tested.

Substance	repression of PCX mRNA
miR-145: miRNA mimic (Thermo Fisher Scientific); sequence GUCCAGUUUUCCCAGGAAUCCCU, SEQ ID NO: 33 (chemistry not given here)	50˜60%
miR-199: miRNA mimic (Thermo Fisher Scientific); sequence CCCAGUGUUCAGACUACCUGUUC, SEQ ID NO: 31 (chemistry not given here)	50˜60%
